# In PubChem BioAssay AID485314 (National Center for Advancing Translational Sciences (NCATS), 2010):
# Where “and” joins values, the source holds several entries; their conditions need not be identical. Equal values may be shown once. Out of some 340,000 compounds screened, about 4,500 (1.3%) were called active. Inconclusive means that the source gave no clear call. Such entries were picked first, then a sample of the others. Calls come from the whole dose curve; as a rule, active = well fitted inhibition curve with a large enough effect; inconclusive = small, poorly fitted or top-dose-only effect, or another doubt; inactive = no such curve, though single readings can be large or run the other way. Potencies of inconclusive entries are doubtful fits and often do not repeat.
# Molecular target: DNA polymerase beta (Homo sapiens) (UniProt P06746)
# Test: qHTS Assay for Inhibitors of DNA Polymerase Beta
# Details: Pol beta primer extension/strand displacement, fluorescence kinetic; activity change, negative = inhibition: at 114 µM (top of the series)
# Method in brief: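 Curves were derived by four-parameter Hill fits of normalized qHTS data. The kinetic fluorescent primer-extension read was taken at 0 and 10 min after 50 nM substrate, following a 15 min room-temperature preincubation of 10 nM enzyme with compounds.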
# % is set by controls: 0 for no effect and ±100 for the full control effect; potency is the fitted concentration of half-maximal effect.
Structure (SMILES),Potency,"activity change, negative = inhibition"
O=C1SC(SCc2ccccc2Cl)=N/C1=C\c1ccc(C(=O)O)cc1,"inconclusive: 0.316 µM [inhibitor, full curve]",
CCCNC(=O)C12CCC(C)(C(=O)O1)C2(C)C (configuration not stated),"inconclusive: 50.1 µM [inhibitor, single point]",
Cc1ccc2c(c1)N(CC(=O)NCc1cccc(Cl)c1)C(=O)c1cccnc1O2,"inconclusive: 100 µM [inhibitor, single point]",
COCCNC(=O)Nc1ccc2nc(C)sc2c1,"inconclusive: 79.4 µM [inhibitor, single point]",
O=c1c2ccccc2nc(/C=C/c2ccccc2)n1CCc1ccccc1,,inactive: 12.3%
Cc1ccc(S(=O)(=O)N/N=C2/CC(=O)CC(C)(C)C2)cc1[N+](=O)[O-],,inconclusive: -37.1% [inhibitor]
CCOc1ccc(C2C(C(=O)Nc3ccc(C)cc3C)=C(C)Nc3c(C(=O)Nc4ccc(C)cc4)cnn32)cc1OC (configuration not stated),,inactive: -22.5%
COc1ccc(CN2CCN(C(=O)c3ccco3)CC2)cc1OC,,inactive: 30.4%
COc1ccc2nc(C)cc(SCC(=O)N/N=C/c3ccc(O)c(O)c3)c2c1,active: 2.24 µM,
Cc1cccc(C(=O)Nc2cc3c(cc2N2CCCCC2)n(C)c(=O)n3C)c1,,inactive: -10.1%
CCn1cc(S(=O)(=O)c2ccccc2)c(=O)c2cc(F)c(N3CCCCCC3)cc21,,inactive: 22.8%
CCOC(=O)CCNC(=O)N1CCCC(N2CCN(c3ccc(OC)cc3)CC2)C1 (configuration not stated),"inconclusive: 3.55 µM [inhibitor, single point]",
COc1cccc2cc(-c3cc(=O)oc4ccc(O)cc34)oc12,"inconclusive: 3.16 µM [inhibitor, full curve]",
CCOc1ccc(C(=O)OCC(=O)NC(C)C)cc1,,inactive: 2.23%
CN(C)/C=C/C(=O)c1ccc2noc(-c3cccc(F)c3)c2c1,,inactive: 20.5%
Cc1[nH]nc2c1C1(C(=O)Nc3ccc([N+](=O)[O-])cc31)C(C#N)=C(N)O2 (configuration not stated),,inactive: -1.28%
Nc1nc(SCC(=O)c2cc(F)ccc2F)n[nH]1,,inactive: -23.9%
O=[N+]([O-])c1ccc2c(OCc3nnc(-c4ccccc4Br)o3)ncnc2c1,"inconclusive: 56.2 µM [inhibitor, single point]",
Cc1ccc(C)c(NS(=O)(=O)c2ccc(-c3cnc(C4CC4)o3)cc2)c1,"inconclusive: 70.8 µM [inhibitor, single point]",
CCC1CCCCN1S(=O)(=O)c1ccc2[nH]c(=O)ccc2c1 (configuration not stated),active: 35.5 µM,
COc1ccc(CC(=O)NCCc2cnc[nH]2)cc1,"inconclusive: 28.2 µM [inhibitor, partial curve, poor fit]",
COc1ccccc1CNC(=O)c1cc2sccc2n1Cc1ccc(F)cc1,,inactive: 14.7%
O=c1c2ccccc2nc(/C=C/c2ccc([N+](=O)[O-])cc2)n1CCCO,,inactive: 1.29%
CCN(CC)S(=O)(=O)c1ccc2c(c1)N(CC(=O)Nc1ccc(F)cc1F)C(=O)C1CCCN21 (configuration not stated),,inactive: 19.9%

# Look-ups from the entries so far:
# O=C1SC(SCc2ccccc2Cl)=N/C1=C\c1ccc(C(=O)O)cc1 | Potency: inconclusive: 0.316 µM [inhibitor, full curve]
# Cc1ccc(C)c(NS(=O)(=O)c2ccc(-c3cnc(C4CC4)o3)cc2)c1 | Potency: inconclusive: 70.8 µM [inhibitor, single point]

# Following part:

Structure (SMILES),Potency,"activity change, negative = inhibition"
Cc1cccc(C)c1N1CCN(C(=O)Cn2cncn2)CC1,"inconclusive: 89.1 µM [inhibitor, single point]",
Cc1ccc(CNc2ccc(-c3nc(-c4cccnc4)no3)cc2[N+](=O)[O-])cc1,"inconclusive: 50.1 µM [inhibitor, partial curve]",
Cc1sc(NC(=O)c2cccnc2)nc1-c1ccccc1,"inconclusive: 50.1 µM [inhibitor, partial curve, poor fit]",
Cc1ccc([N+](=O)[O-])cc1NC(=O)Nc1onc(C)c1C,"inconclusive: 79.4 µM [inhibitor, single point]",
Cc1ccccc1NC(=S)NC(=O)COc1ccccc1C,"inconclusive: 100 µM [inhibitor, single point]",
Cc1c(-c2ccccc2)n(-c2ccc(Cl)cc2)c2nc3c(c(=O)n(C)c(=O)n3C)n12,,inactive: -22.7%
COC(=O)c1ccc(CNS(=O)(=O)c2ccc3ccccc3c2)cc1,"inconclusive: 35.5 µM [inhibitor, single point]",
COc1ccc(NC(=O)Cn2nnc(-c3ccccc3F)n2)cc1,"inconclusive: 89.1 µM [inhibitor, single point]",
CCOc1ccc2nc(Cl)c(C3CC(c4ccc(C)cc4)=NN3C(=O)CCCC(=O)O)cc2c1 (configuration not stated),active: 22.4 µM,
Cc1csc(NC(=O)CSc2ccc(-c3ccc(F)cc3)nn2)n1,"inconclusive: 1.58 µM [inhibitor, full curve]",
Cc1ccc(NCC(=O)N/N=C/c2ccc(-c3cccc(C(F)(F)F)c3)o2)cc1,"inconclusive: 89.1 µM [inhibitor, single point]",
Cc1cc(OCC(=O)N(Cc2cccs2)C2CCS(=O)(=O)C2)ccc1Cl (configuration not stated),"inconclusive: 89.1 µM [inhibitor, single point]",
CC1=C(C)C(=O)C(CCCCC#CCCCC#CCO)=C(C)C1=O,"inconclusive: 28.2 µM [inhibitor, single point] and inconclusive: 17.8 µM [inhibitor, full curve]",
CCC(C(=O)Nc1cccc(-c2cn3cccnc3n2)c1)c1ccccc1 (configuration not stated),,inactive: -16.7%
CC(C)c1ccc(NC(=O)N2CCCC2C(=O)Nc2ccc(-n3cnnn3)cc2)cc1 (configuration not stated),"inconclusive: 39.8 µM [inhibitor, single point]",
Cc1ccc(S(=O)(=O)n2nc(OC(=O)c3cccs3)cc2N)cc1,"inconclusive: 1.78 µM [inhibitor, full curve, poor fit]",
Cc1cc(=O)n2nc(N3CCC(C(=O)Nc4c(F)c(F)c(F)c(F)c4F)CC3)sc2n1,"inconclusive: 70.8 µM [inhibitor, single point]",
Cc1ccn2c(c1)nc(=O)c1cc(S(=O)(=O)N3CCC(C)CC3)c(Cl)cc12,,inactive: -9.49%
O=C1CC(=O)NC(SCC(=O)Nc2ccccc2[N+](=O)[O-])=N1,"inconclusive: 14.1 µM [inhibitor, full curve]",
COc1ccc(CN(C)CC(=O)Nc2sc3c(c2C#N)CCC3)cc1OC,"inconclusive: 25.1 µM [inhibitor, full curve]",
COc1ccc(C2=NN(CC(=O)Nc3cc(C)ccc3C)C(=O)CC2)cc1,,inconclusive: -35.3% [inhibitor]
CC1=C/C(=C\c2ccc(Br)o2)C(=O)O1,active: 6.31 µM,
COc1ccc(CNc2nc3c(c(=O)n(Cc4ccc(Cl)cc4)c(=O)n3C)n2C)cc1,"inconclusive: 44.7 µM [inhibitor, partial curve]",
COc1cc(NC(=O)c2cccs2)c(C(=O)OCC(=O)NCc2ccco2)cc1OC,active: 12.6 µM,

# Two entries from above, set out differently:
Structure (SMILES) | Potency | activity change, negative = inhibition
CC(C)c1ccc(NC(=O)N2CCCC2C(=O)Nc2ccc(-n3cnnn3)cc2)cc1 (configuration not stated) | inconclusive: 39.8 µM [inhibitor, single point] | 
Cc1ccc(S(=O)(=O)n2nc(OC(=O)c3cccs3)cc2N)cc1 | inconclusive: 1.78 µM [inhibitor, full curve, poor fit] | 

# Continuation.

Structure (SMILES),Potency,"activity change, negative = inhibition"
CN(C)c1ccc(C(CNS(=O)(=O)c2ccc(Cl)cc2)N2CCCC2)cc1 (configuration not stated),,inactive: 1.34%
CCCCCc1ccc(OCCC[n+]2ccccc2)c(CCCCC)c1,,inconclusive: -30.5% [inhibitor]
Cc1cc2c(ncn2Cc2ccccc2)c([N+](=O)[O-])c1C,"inconclusive: 10 µM [inhibitor, partial curve]",
COc1ccccc1CNC(=O)CSC1=NCCS1,,inactive: -0.838%
O=C(Nc1sc2c(c1C(=O)O)CCC2)c1ccccc1Cl,,inactive: 1.96%
O=C(Nc1nc2ccc(F)cc2s1)C1CCN(S(=O)(=O)c2cc([N+](=O)[O-])ccc2Cl)CC1,active: 8.91 µM,
C=COCCNC(=S)Nc1cccc(Cl)c1,"inconclusive: 17.8 µM [inhibitor, single point]",
Cc1c(CCC(=O)O)c(=O)oc2cc3occ(-c4ccc(Br)cc4)c3cc12,"inconclusive: 63.1 µM [inhibitor, single point]",
O=[N+]([O-])c1cccc(NC(=S)N2CCOCC2)c1,"inconclusive: 79.4 µM [inhibitor, single point]",
Cc1c(NC(=O)C(C)Sc2nc3ccccc3c(=O)n2CCO)c(=O)n(-c2ccccc2)n1C (configuration not stated),"inconclusive: 11.2 µM [inhibitor, partial curve]",
Cc1ccc(-n2c(CCC(=O)O)ccc2-c2cccs2)cc1,active: 35.5 µM,
O=C(c1ccco1)N(Cc1ccc(Cl)cc1)Cc1ccco1,"inconclusive: 0.316 µM [inhibitor, full curve, poor fit]",
O=C(COC(=O)c1cn(-c2ccccc2)nc1-c1ccccc1)Nc1ncc(Cl)cc1Cl,,inconclusive: -43.7% [inhibitor]
O=C(NC1=C(Nc2ccc(Cl)cc2)C(=O)c2ccccc2C1=O)c1ccccc1,"inconclusive: 6.31 µM [inhibitor, full curve, poor fit]",
Cc1ccc(NC(=S)NC(=O)C2CC2)cc1Cl,,inconclusive: -34.4% [inhibitor]
COc1ccc(OC)c(NC(=O)c2csnn2)c1,"inconclusive: 89.1 µM [inhibitor, single point]",
O=C(O)CCCCCn1c(SCC(=O)c2ccc(O)c(O)c2)nc2ccsc2c1=O,active: 39.8 µM,
O=C(N/C(=C/c1cccc([N+](=O)[O-])c1)C(=O)N1CCCC1)c1ccccc1,,inactive: 8.61%
CCc1ccc(NC(=S)/N=C(\N)Nc2nc(C)c3cc(CC)ccc3n2)cc1,,inactive: -11.6%
O=C(O)CCc1ccc(-c2cccs2)n1-c1ccc(C(=O)O)cc1,"inconclusive: 14.1 µM [inhibitor, full curve, poor fit]",
O=C(Nc1ccc2nc(SCC(=O)N3CCCC3)sc2c1)c1ccc(F)cc1,"inconclusive: 56.2 µM [inhibitor, partial curve]",
CSc1ccc(/C=N/Nc2nc(C)cc(C)n2)cc1,"inconclusive: 89.1 µM [inhibitor, single point]",
CC1CCCC(NC(=O)C2N(CCCN3CCCC3)C(=O)C3C(C(=O)Nc4ccc(Cl)cc4)C4C=CC32O4)C1C (configuration not stated),,inactive: 19.1%
Cc1ccc(NC(=O)Cn2c(CCC(=O)O)ccc2-c2cccs2)cc1,"inconclusive: 89.1 µM [inhibitor, single point]",
